Consider five targets from the supplement of paper PMC6411743.

The chains behind the UniProt entries cited, without tags or fusion partners. Where a name states a change or a piece, a line headed by the entry shows the natural chain unless it says otherwise.
UniProt Q70CQ3: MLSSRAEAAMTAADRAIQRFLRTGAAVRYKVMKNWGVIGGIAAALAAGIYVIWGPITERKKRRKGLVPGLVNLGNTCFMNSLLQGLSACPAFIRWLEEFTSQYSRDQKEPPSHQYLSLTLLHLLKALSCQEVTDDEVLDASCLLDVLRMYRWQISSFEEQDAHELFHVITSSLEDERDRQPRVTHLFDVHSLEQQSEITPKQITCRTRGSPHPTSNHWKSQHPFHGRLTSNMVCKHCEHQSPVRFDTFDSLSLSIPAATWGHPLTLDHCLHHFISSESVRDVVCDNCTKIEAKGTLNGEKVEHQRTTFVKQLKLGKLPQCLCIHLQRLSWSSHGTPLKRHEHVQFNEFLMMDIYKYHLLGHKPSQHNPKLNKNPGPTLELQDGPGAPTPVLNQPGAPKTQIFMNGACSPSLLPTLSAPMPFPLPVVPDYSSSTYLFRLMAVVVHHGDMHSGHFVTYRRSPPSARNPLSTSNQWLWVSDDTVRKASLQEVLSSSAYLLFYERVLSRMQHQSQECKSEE
UniProt A9UHW6: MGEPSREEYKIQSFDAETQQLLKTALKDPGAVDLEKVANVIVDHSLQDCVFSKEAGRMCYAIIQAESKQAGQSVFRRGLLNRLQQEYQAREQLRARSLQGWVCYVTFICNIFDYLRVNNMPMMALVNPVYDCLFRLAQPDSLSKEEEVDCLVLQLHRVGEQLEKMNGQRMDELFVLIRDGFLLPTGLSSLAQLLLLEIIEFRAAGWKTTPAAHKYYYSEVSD
UniProt Q9Y2S7: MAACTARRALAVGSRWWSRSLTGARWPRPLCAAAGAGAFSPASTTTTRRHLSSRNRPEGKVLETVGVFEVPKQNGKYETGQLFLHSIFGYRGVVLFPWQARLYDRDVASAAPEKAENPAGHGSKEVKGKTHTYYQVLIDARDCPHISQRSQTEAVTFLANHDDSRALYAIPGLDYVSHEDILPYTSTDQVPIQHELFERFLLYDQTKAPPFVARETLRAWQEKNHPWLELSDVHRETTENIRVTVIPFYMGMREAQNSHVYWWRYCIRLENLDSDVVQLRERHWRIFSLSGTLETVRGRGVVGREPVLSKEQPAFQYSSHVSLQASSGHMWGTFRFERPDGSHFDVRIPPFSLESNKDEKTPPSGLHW
UniProt Q9Y3B2, whole entry: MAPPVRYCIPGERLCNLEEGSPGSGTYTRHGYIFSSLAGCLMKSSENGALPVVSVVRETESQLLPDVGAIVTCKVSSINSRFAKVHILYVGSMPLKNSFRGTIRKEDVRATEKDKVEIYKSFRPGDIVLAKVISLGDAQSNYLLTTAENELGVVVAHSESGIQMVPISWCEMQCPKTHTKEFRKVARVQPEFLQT
UniProt Q6NT76: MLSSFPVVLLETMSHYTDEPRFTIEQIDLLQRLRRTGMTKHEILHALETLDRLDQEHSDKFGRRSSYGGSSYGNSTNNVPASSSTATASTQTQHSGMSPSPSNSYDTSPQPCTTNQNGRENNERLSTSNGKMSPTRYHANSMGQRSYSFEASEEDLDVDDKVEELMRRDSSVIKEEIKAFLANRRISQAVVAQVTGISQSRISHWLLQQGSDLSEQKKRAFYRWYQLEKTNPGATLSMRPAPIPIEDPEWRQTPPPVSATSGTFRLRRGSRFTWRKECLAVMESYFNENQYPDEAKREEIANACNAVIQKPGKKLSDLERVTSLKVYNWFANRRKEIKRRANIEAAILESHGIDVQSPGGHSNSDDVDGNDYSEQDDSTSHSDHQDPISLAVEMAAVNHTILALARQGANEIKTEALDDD

Compound in this assay: Nc1nc2c(ncn2[C@@H]2O[C@H](COP(=O)(O)OP(=O)(O)OP(=O)(O)O)[C@@H](O)[C@H]2O)c(=O)[nH]1 [guanosine triphosphate]
Put plainly: NP40-soluble protein abundance relative to vehicle (solubility fold change) (ratio); higher = more soluble protein in presence of GTP. The method, then:
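Solubility proteome profiling in Jurkat crude lysate. Lysate was treated with Mg-GTP (0.1-10 mM) for 10 min at room temperature and 3 min at 37 °C, then solubilised with 0.8% NP40 and benzonase, followed by ultracentrifugation. Proteins were quantified by TMT10 LC-MS/MS; the value is the NP40-soluble abundance relative to the NP40-processed vehicle, from 3 independent experiments.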

± gives the standard deviation of the averaged measurements. The list shows a part of the results.

Regarding “B3KUS5 and related entries (UniProt Q70CQ3)”, the NP40-soluble protein abundance reads like this: (concentration: 0.1mM) 0.983 ± 0.23; (concentration: 0.5mM) 0.936 ± 0.045; (concentration: 1mM) 0.931 ± 0.045; (concentration: 2mM) 1.03 ± 0.033; (concentration: 4mM) 1.04 ± 0.19; (concentration: 6mM) 0.997 ± 0.075. Moreover, the NP40-soluble protein abundance by setting is: (concentration: 8mM) 0.956 ± 0.013; (concentration: 10mM) 0.982 ± 0.075.
For the target UniProt A9UHW6 and related entries, the NP40-soluble protein abundance was 0.862 ± 0.026 (concentration: 0.1mM); 0.828 ± 0.048 (concentration: 0.5mM); 0.981 ± 0.048 (concentration: 1mM); 0.952 ± 0.085 (concentration: 2mM); 0.908 ± 0.031 (concentration: 4mM); 0.981 ± 0.051 (concentration: 6mM). Further, the NP40-soluble protein abundance by setting is: (concentration: 8mM) 0.859 ± 0.099; (concentration: 10mM) 0.94 ± 0.035.
As for “B4DEM9 and related entries (UniProt Q9Y2S7)”, the NP40-soluble protein abundance (concentration: 0.1mM) came to 1.01 ± 0.013; the NP40-soluble protein abundance (concentration: 0.5mM) is 1.03 ± 0.033; the NP40-soluble protein abundance (concentration: 1mM) came out at 0.921 ± 0.018; the NP40-soluble protein abundance (concentration: 2mM) stood at 0.97 ± 0.042; the NP40-soluble protein abundance (concentration: 4mM) came out at 0.923 ± 0.03; the NP40-soluble protein abundance (concentration: 6mM) worked out at 0.946 ± 0.014. For the same target, the NP40-soluble protein abundance runs as follows: (concentration: 8mM) 0.909 ± 0.045; (concentration: 10mM) 0.892 ± 0.073.
Turning to “B1AMU7 and related entries (UniProt Q9Y3B2)”, the NP40-soluble protein abundance (concentration: 0.1mM) came out at 1.02 ± 0.037; the NP40-soluble protein abundance (concentration: 0.5mM) was 1.07 ± 0.04; the NP40-soluble protein abundance (concentration: 1mM) was found to be 1.01 ± 0.056; the NP40-soluble protein abundance (concentration: 2mM) amounted to 1.1 ± 0.11; the NP40-soluble protein abundance (concentration: 4mM) came to 1.18 ± 0.11; the NP40-soluble protein abundance (concentration: 6mM) was found to be 1.22 ± 0.12. Also, the NP40-soluble protein abundance reads like this: (concentration: 8mM) 1.17 ± 0.062; (concentration: 10mM) 1.18 ± 0.068.
Turning to “E5RGZ2 and related entries (UniProt Q6NT76)”, the NP40-soluble protein abundance runs as follows: (concentration: 0.1mM) 0.92 ± 0.04; (concentration: 0.5mM) 0.877 ± 0.12; (concentration: 1mM) 0.927 ± 0.052; (concentration: 2mM) 0.903 ± 0.056; (concentration: 4mM) 0.89 ± 0.073; (concentration: 6mM) 0.963 ± 0.097. The NP40-soluble protein abundance turned out to be 0.89 ± 0.033 (concentration: 8mM) and 0.918 ± 0.082 (concentration: 10mM).
